# Data reported in PubChem BioAssay AID540256 (National Center for Advancing Translational Sciences (NCATS), 2011).
# Among all 300,000 compounds or so, about 3,700 (1.2%) were called active. Inconclusive results, whose numbers are uncertain, are shown with a selection of clear calls. Calls follow the shape of the full dose curve; tested in HEK293 cells. A potency beside an inconclusive call is a rough fit, not a confirmed value.
# Assay: qHTS for Inhibitors of binding or entry into cells for Lassa Virus; also: nearly all actives have a fitted effect of over 50% in size
# Settings: Lassa virus pseudotype entry inhibition, cell reporter; series mostly up to 37.9 µM
# Potency is read from the fitted curve at half-maximal effect.
row,Compound,Potency
1,Cc1nn(-c2ccccc2)c(C)c1/C=N/NC(=O)c1cc(C23CC4CC(CC(C4)C2)C3)[nH]n1,"inconclusive: 11.2 µM [inhibitor, partial curve]"
2,O=C(Cn1c(=O)n(-c2ccc(F)cc2)c(=O)c2sccc21)N1CCCC1,inactive
3,Cc1nn(C(=O)c2c(F)cccc2F)c(C)c1S(=O)(=O)N1CCOCC1,"inconclusive: 15.8 µM [activator, single point]"
4,Cc1ccc(NC(=Nc2ccc(Br)cc2)N2CCOCC2)cc1C,"inconclusive: 35.5 µM [inhibitor, partial curve, poor fit]"
5,CC(C)(C)c1ccc(OCC(O)CN(CCO)CC(O)Cn2ccc3ccccc32)cc1 (stereo not drawn),"inconclusive: 3.26 µM [inhibitor, partial curve]"
6,CCCC1=Nc2cc(C(=O)NC(C)c3ccccc3)ccc2Sc2ccc(C)cc21 (stereo not drawn),"inconclusive: 1.78 µM [inhibitor, full curve]"
7,COCCN1C(=O)c2[nH]nc(-c3ccccc3O)c2C1c1ccc(Cl)c(Cl)c1 (stereo not drawn),"inconclusive: 11.2 µM [inhibitor, partial curve, poor fit]"
8,O=C(CCN1N=C(c2ccccc2)CCC1=O)NCCc1ccc(Cl)cc1,inactive
9,O=c1c2c(-c3ccccc3)ccnc2[nH]n1-c1ccccc1,"inconclusive: 8.91 µM [activator, partial curve, poor fit]"
10,COc1ccc(CN(C)C(=O)c2cccc(S(=O)(=O)N3CCN(c4ccccc4)CC3)c2)c(OC)c1OC,"inconclusive: 10 µM [inhibitor, partial curve, poor fit]"
11,CC(/C=C/c1ccccc1F)=N\NC(=O)c1cccc(F)c1,"inconclusive: 20 µM [inhibitor, single point]"
12,O=S(=O)(c1ccc(F)c(F)c1)N1CCN(S(=O)(=O)c2cccs2)CC1,"inconclusive: 1 µM [activator, single point]"
13,COc1ccc(NC(=O)CN2CCC(C)CC2)cc1,inactive
14,Cc1nn(-c2ccccc2)c2nc(C3CC3)cc(C(=O)Nc3ccccc3F)c12,inactive
15,COc1ccccc1N(C)S(=O)(=O)c1ccc(C(=O)Nc2cc(F)ccc2C)cc1,"inconclusive: 35.5 µM [inhibitor, single point]"
16,CC#CC[N+](C)(C)CCCCCCCCCC,"inconclusive: 20 µM [inhibitor, single point]"
17,Cc1ccccc1C(=O)Nc1nnc(S(=O)(=O)N2c3ccccc3CC2C)s1 (stereo not drawn),inactive

# Quoted from the listing.
# Potency with Cc1nn(-c2ccccc2)c2nc(C3CC3)cc(C(=O)Nc3ccccc3F)c12 reads inactive
# Potency with Cc1ccccc1C(=O)Nc1nnc(S(=O)(=O)N2c3ccccc3CC2C)s1 (stereo not drawn) reads inactive

# Next structures.

row,Compound,Potency
1,Cc1nc2ccc3nc(NC(=O)c4ccc(S(=O)(=O)N5CCOCC5)cc4)sc3c2s1,inactive
2,CN1C(=O)c2ccccc2Sc2ccc(NC(=O)COc3ccc(F)cc3)cc21,"inconclusive: 11.2 µM [inhibitor, single point]"
3,O=C(NCC(=O)N(c1cccnc1)C(C(=O)NCc1ccco1)c1ccccc1)c1ccco1 (stereo not drawn),"inconclusive: 23.1 µM [activator, partial curve, poor fit]"
4,Cc1cc(C)n(-c2cc(N3CCN(S(=O)(=O)c4ccc(Cl)cc4)CC3)ccc2[N+](=O)[O-])n1,"inconclusive: 35.5 µM [inhibitor, single point]"
5,Clc1ccccc1-c1nnc2sc(-c3ccc(Br)o3)nn12,"inconclusive: 29.1 µM [inhibitor, single point]"
6,COc1cc(CC2(CCc3ccncc3)C(=O)NC(=O)NC2=O)cc(OC)c1OC,"inconclusive: 22.4 µM [activator, partial curve, poor fit]"
7,Cc1ccc(C)c(S(=O)(=O)N2CCN(C(C)C(=O)Nc3ccccc3-c3ccccc3)CC2)c1 (stereo not drawn),"inconclusive: 12.6 µM [inhibitor, single point]"
8,COC(=O)c1ccccc1NC(=O)C1COc2ccccc2O1 (stereo not drawn),inactive
9,COc1ccc(C(c2nnnn2C2CCCC2)N2CCc3ccccc3C2)cc1OC (stereo not drawn),"inconclusive: 10 µM [inhibitor, partial curve, poor fit]"
10,COc1ccc(S(=O)(=O)N2CCC(Oc3ccc(-n4cnnn4)cc3)CC2)cc1OC,inactive
11,COc1cc(CN2CCN(CCCc3ccccc3)CC2CCO)cc(OC)c1 (stereo not drawn),inactive
12,CC(=O)Nc1ccc(NC(=O)CSc2nc3ccccc3nc2N2CCOCC2)cc1,"inconclusive: 3.16 µM [activator, partial curve, poor fit]"
13,O=C(c1cccc(S(=O)(=O)N2CCN(c3ccccc3)CC2)c1)N1CCCCCCC1,"inconclusive: 7.94 µM [inhibitor, partial curve, poor fit]"
14,CCOc1cccc(CC(=O)N2CCc3c([nH]c4ccccc34)C2c2ccc(Cl)cc2)c1OCC (stereo not drawn),"inconclusive: 11.2 µM [inhibitor, single point]"
15,COCCCNC(=S)Nc1c(C)cc(C)cc1C,inactive
16,C=CC[C@H]1CC(C)=C[C@H](CC=C)N1C(=O)c1cc(COc2ccccc2SC)on1,"inconclusive: 2.24 µM [inhibitor, partial curve, poor fit]"
